Assay results reported in patent US20200354475A1.
These are yes or no findings as the source states them, for the method shown. Some results given as binding are weak or reduced against the parent protein; the word gives no strength.

Legend:
[1] = target: CAR comprising the anti-CD19 scFv FMC63 (SEQ ID NO: 1); experiment: flow cytometry, CAR-transduced cells against untransduced cells
[2] = target: CAR comprising the anti-CD19 scFv FMC63 (SEQ ID NO: 1); experiment: immunohistochemistry on cells presenting the CAR
[3] = target: CAR comprising the anti-CD19 scFv FMC63 (SEQ ID NO: 1); experiment: immunohistochemistry on cells presenting the CAR, PBMC control
[4] = target: CAR comprising the anti-CD19 scFv FMC63 (SEQ ID NO: 1); experiment: immunohistochemistry on fixed cell pellets of CAR T cells presenting the FMC63 scFv, PBMC as control

binding [1]	binding [2]	binding [3]	binding [4]	Binder
binds				Clone 17 (antibody, V domains shown) VH: QSLEESGGGLVKPGASLTLTCTASGFSFSDSWYLCWVRQAPGKGLEWIACIYTGDGDTYYATWAKGRFTISKTSSTTVTLQMTSLTAADTATYFCARGAQFYLWGQGTLVTVSS VL: AQVLTQTPSSVSAAVGGTVTINCQSSQSVYANTYLSWYQQKPGQPPKQLIYSASSLASGVPPRFKGSGSGTQFALTISDVQCDDAATYYCLGRYSCGLADCAAFGGGTEVVVKG
	binds	binds	binds	Clone 13 (antibody, V domains shown) VH: QEQLEESGGDLVKPGGTLTVTCKASGFSFSNNGICWVRQAPGKGLEWIGCLYVGSSDTTYYASWAKGRFTISKSSSTTVTLQMTSLTVADTATYFCTINLGLWGPGTLVTVSS VL: AIVVTQTPSSKSVPVGGTVTINCQASESVYNSDWLAWYQQKPGQPPKQLIYAASTLASGVPSRFKGSGSGTQFTLTISDVVCDDAATYYCAGYKSSSTDGIAFGGGTEVVVKG
